Measurements published in publication PMC7790228.
No constants are given. Whether binding was seen depends on the method and setting. Binding seen in cells or lysates may run through a third protein. Some entries that bind do so weakly or less than the wild type.

Protein sequences, listed by entry. Tags and fused reporters are not part of them.
UniProt Q92734: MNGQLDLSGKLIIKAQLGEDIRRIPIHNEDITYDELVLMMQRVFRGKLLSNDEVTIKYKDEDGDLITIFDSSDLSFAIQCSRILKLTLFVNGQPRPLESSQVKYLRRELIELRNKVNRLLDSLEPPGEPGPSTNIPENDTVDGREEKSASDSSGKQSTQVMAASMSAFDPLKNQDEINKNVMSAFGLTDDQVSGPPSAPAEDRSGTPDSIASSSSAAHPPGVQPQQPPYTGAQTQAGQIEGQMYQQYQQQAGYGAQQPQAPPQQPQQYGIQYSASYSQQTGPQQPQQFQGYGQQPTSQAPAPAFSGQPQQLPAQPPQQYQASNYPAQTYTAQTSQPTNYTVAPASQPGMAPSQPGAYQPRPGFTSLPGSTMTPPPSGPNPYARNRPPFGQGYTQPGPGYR

Key:
[1] = target: TRK-Fused Gene (TFG), endogenous (human (endogenous in HeLa and HEK293T)) (UniProt Q92734); experiment: co-IP; HEK293T whole cell extracts, SeV infection; endogenous TFG immunoprecipitated, blots for endogenous mTOR and TBK1
[2] = target: TRK-Fused Gene (TFG), endogenous (human (endogenous in HeLa and HEK293T)) (UniProt Q92734); experiment: co-IP; HeLa whole cell extracts, SeV infection or Poly(I:C) transfection for indicated times; endogenous TFG immunoprecipitated, blots for endogenous TRAF3 and TBK1

binding [1]: binds
binding [2]: binds
B1: TANK-Binding Kinase (TBK1), endogenous (enzyme, UniProt Q9UHD2 1-729)
chain: MQSTSNHLWLLSDILGQGATANVFRGRHKKTGDLFAIKVFNNISFLRPVDVQMREFEVLKKLNHKNIVKLFAIEEETTTRHKVLIMEFCPCGSLYTVLEEPSNAYGLPESEFLIVLRDVVGGMNHLRENGIVHRDIKPGNIMRVIGEDGQSVYKLTDFGAARELEDDEQFVSLYGTEEYLHPDMYERAVLRKDHQKKYGATVDLWSIGVTFYHAATGSLPFRPFEGPRRNKEVMYKIITGKPSGAISGVQKAENGPIDWSGDMPVSCSLSRGLQVLLTPVLANILEADQEKCWGFDQFFAETSDILHRMVIHVFSLQQMTAHKIYIHSYNTATIFHELVYKQTKIISSNQELIYEGRRLVLEPGRLAQHFPKTTEENPIFVVSREPLNTIGLIYEKISLPKVHPRYDLDGDASMAKAITGVVCYACRIASTLLLYQELMRKGIRWLIELIKDDYNETVHKKTEVVITLDFCIRNIEKTVKVYEKLMKINLEAAELGEISDIHTKLLRLSSSQGTIETSLQDIDSRLSPGGSLADAWAHQEGTHPKDRNVEKLQVLLNCMTEIYYQFKKDKAERRLAYNEEQIHKFDKQKLYYHATKAMTHFTDECVKKYEAFLNKSEEWIRKMLHLRKQLLSLTNQCFDIEEEVSKYQEYTNELQETLPQKMFTASSGIKHTMTPIYPSSNTLVEMTLGMKKLKEEMEGVVKELAENNHILERFGSLTMDGGLRNVDCL
